Laboratory results: PubChem BioAssay AID1053208 (Peter MacCallum Cancer Centre, 2014)
This is one part, drawn at random, of about 17,000 deposited reagents. In the full data, 788 (4.7%) were called active. 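Calls rest on z-score classes alone; an extra cut-off of viability at most 70% of control was not applied to them.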 Entries without a mark were called inactive. Further read-outs or replicates are left out here.

Purpose: 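Synthetic lethal interactions between gene loss and doxorubicin in osteosarcoma cells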 (primary screen)
Cell system: mouse osteosarcoma cells, early-passage culture from an engineered mouse model of fibroblastic bone tumour
Knock-down reagent: siRNA pool against mouse genes, 40 nM
Timing: about 120 h (48 h before drug, then 72 h with drug)
Challenge: doxorubicin 100 nM for 72 h, roughly 30-40% inhibitory dose
Measurement: 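Viability read as ATP luminescence after 72 h of 100 nM doxorubicin or none, duplicate wells averaged, scaled to non-targeting siRNA, then expressed as robust z-scores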
Reading the numbers: viability z-score with doxorubicin: higher = more viable cells under doxorubicin; viability z-score without drug: higher = more viable cells with knock-down alone
Call rule: 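a pool counts as active when its viability z-score with doxorubicin is -2 or below and its z-score without drug lies between -2 and 2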

{"target": "Usp39", "combined z-score class": "no change with or without drug", "viability z-score with doxorubicin": -1.57, "viability z-score without drug": -1.35}
{"target": "Ifng", "combined z-score class": "no change with or without drug", "viability z-score with doxorubicin": -1.35, "viability z-score without drug": -1.69}
{"target": "Tnnt1", "combined z-score class": "no change with or without drug", "viability z-score with doxorubicin": 1.24, "viability z-score without drug": 1.18}
{"target": "Csn1s2b", "combined z-score class": "no change with or without drug", "viability z-score with doxorubicin": 0.45, "viability z-score without drug": 1.52}
{"target": "F830045P16Rik", "combined z-score class": "no change with or without drug", "viability z-score with doxorubicin": 0.56, "viability z-score without drug": 0.51}
{"target": "Dync1i1", "combined z-score class": "no change with or without drug", "viability z-score with doxorubicin": -0.79, "viability z-score without drug": -0.17}
{"target": "Wars1", "combined z-score class": "no change with or without drug", "viability z-score with doxorubicin": 0, "viability z-score without drug": -0.34}
{"target": "Parp1", "combined z-score class": "no change with or without drug", "viability z-score with doxorubicin": -0.67, "viability z-score without drug": 0.17}
{"target": "Bola2", "combined z-score class": "no change with or without drug", "viability z-score with doxorubicin": -0.9, "viability z-score without drug": -0.34}
{"target": "Ttc29", "combined z-score class": "no change with or without drug", "viability z-score with doxorubicin": 1.24, "viability z-score without drug": 0.51}
{"target": "Hjv", "combined z-score class": "no change with or without drug", "viability z-score with doxorubicin": -1.35, "viability z-score without drug": -1.52}
{"target": "Itgb6", "combined z-score class": "no change with or without drug", "viability z-score with doxorubicin": -1.57, "viability z-score without drug": -1.18}
